Measurements as given in EP4755878A1, “PHOTOCHROMIC COMPOUND, PHENOL DERIVATIVE, CURABLE COMPOSITION, OPTICAL ARTICLE, LENS, AND EYEGLASS” (TOKUYAMA CORPORATION, priority 2023, dated 2025).

Legend:
Conditions in all cases: A35/A23 × 100, one value per compound
[1] = Photochromic properties of photochromic layer (binder sheet) made by binder method
[2] = Photochromic properties of photochromic laminate (plastic lens) made by coating method; assay type: physicochemical
Description: First, the photochromic compound obtained in Example 1 above, a photoinitiator, and polymerizable compounds were mixed to obtain a curable composition.
As the polymerizable compounds, a blend of the following radically-polymerizable monomers in combination was used.
• Polyethylene glycol dimethacrylate (average molecular weight: 736): 42 parts by mass • Polyethylene glycol dimethacrylate (average molecular weight: 536): 12 parts by mass • Trimethylolpropane trimethacrylate: 38 parts by mass • γ-Methacryloyloxypropyltrimethoxysilane: 2 parts by mass • Glycidyl methacrylate: 1 part by mass.
Note that in the curable composition, the photochromic compound obtained in Example 1 above was added to be 0.25 mmol taking the total amount of the radically-polymerizable monomers as 100 g. The following were used as additives.
(stabilizer, Irganox 245): 1 part by mass Bis(1,2,2,6,6-pentamethyl-4-piperidyl) sebacate: 3 parts by mass Leveling agent from DuPont Toray Specialty Materials K.K. (L7001): 0.1 parts by mass.
Note that the above-mentioned additives are described with blending ratios taking a total of the radically-polymerizable monomers as 100 parts by mass.
Using this curable composition, a photochromic laminate was obtained by a lamination process described below with the polymerization described below being carried out.
First, a thiourethane plastic lens with a center thickness of 2 mm and a refractive index of 1.60 was prepared as an optical substrate. Note that the thiourethane plastic lens had been alkaline-etched beforehand in a 10% aqueous sodium hydroxide solution at 50°C for 5 minutes, and then thoroughly washed with distilled water.
A spin coater (1H-DX2, manufactured by MIKASA CO., LTD) was used to coat a surface of the above-mentioned plastic lens with a moisture-curable primer (product name: TR-SC-P, manufactured by Tokuyama Corporation) at a rotation speed of 70 rpm for 15 seconds, followed by at 1000 rpm for 10 seconds. Then, about 2 g of the photochromic curable composition obtained as above was spin-coated at a rotation speed of 60 rpm for 40 seconds, followed by at 600 rpm for 10 to 20 seconds so as to achieve a photochromic coating layer with a film thickness of 40 µm.
The lens having the surface coated with the photochromic curable composition (photochromic coating layer) was irradiated with light for 90 seconds in a nitrogen gas atmosphere using a metal halide lamp with an output of 200 mW/cm^2 to cure the coating film. The coating was then further heated at 110°C for 1 hour to produce a photochromic laminate with a photochromic layer.
Photochromic laminates were produced using the photochromic compounds obtained in Examples 2 to 19 in the same manner as in Example 20.
Photochromic laminates were obtained in the same manner as in Example 20 using photochromic compounds represented by the following formulas (A) to (F). [drawing 143] [drawing 144] [drawing 145] [drawing 146] [drawing 147] [drawing 148] [drawing 149] [drawing 150]
The resulting photochromic laminates were evaluated by the methods described below.
Table 3 summarizes the results of Examples 20, 32, and 34, and Comparative Examples 1 to 6, and Table 4 summarizes the results of Examples 21 to 31, 33, and 35 to 38. The relationship between the fading half-life at 23°C and the color development ratio at the higher temperature of the photochromic laminates according to Examples and Comparative Examples are shown in a graph in FIG. 1.
Photochromic laminates were formed using the photochromic compound obtained in Examples 61 to 71 in the same manner as in Example 20.

[3] = Photochromic properties of photochromic cured product made by kneading method; assay type: physicochemical
Description: First, the photochromic compound obtained in Example 1, additives, and polymerizable compounds were mixed to obtain a curable composition. As the polymerizable compounds, a blend of the following polymerizable monomers in combination was used. • 1,3-Bis(isocyanatomethyl)cyclohexane: 36.7 parts by mass Pentaerythritol tetrakis(3-mercaptopropionate): 39.4 parts by mass • Polyoxyethylene polyoxypropylene lauryl ether (WONDERSURF 140 from Aoki Oil Industrial Co., Ltd.): 17.4 parts by mass 1-Decanethiol: 2.8 parts by mass • RX-1 prepared according to the method described in Patent Document 12: 3.8 parts by mass Note that in the curable composition, the photochromic compound was added to be 0.106 mmol taking the total amount of the polymerizable monomers as 100 g.
The following additives were used. Dimethyltin dichloride: 0.05 parts by mass • Irganox 245 from BASF Japan Ltd.: 0.1 parts by mass • 2-Ethylhexyl 4-methoxycinnamate: 0.6 parts by mass
The prepared curable composition was sufficiently degassed, and then injected into a glass mold provided with a gap of 1 mm, and the curable composition was polymerized via casting polymerization. […] After the polymerization, the cured product was removed from the glass mold, to obtain photochromic cured product having a thickness of 1 mm. The resulting photochromic cured product was evaluated in the same manner as in Example 23.
(Examples 51 to 60, and Comparative Examples 11 to 14) Photochromic cured products were formed using the photochromic compound shown in Table 6 in the same manner as in Example 50.

SMILES | Color development ratio at high temperature [1] [%] | Color development ratio at high temperature [2] [%] | Color development ratio at high temperature [3] [%]
COc1ccc(C2(c3ccc(OC)cc3)C=Cc3c4c(c5ccc(OC)cc5c3O2)-c2ccc(OC)cc2C4(C)C)cc1 [Formula (C), reference compound] | 71 | 71 | 76
COCC1(COC)c2cc(N(C)c3ccccc3)ccc2-c2c1c1c(c3ccccc23)OC(c2ccc(OC)cc2)(c2ccc(OC)c(F)c2)C=C1 (stereo not drawn) [Formula (16-3)] | 68 | 68 | 71
COc1ccc(C2(c3ccc(OC)cc3)C=Cc3c4c(c5ccc(Oc6ccccc6)cc5c3O2)-c2ccc(N(c3ccccc3)c3ccccc3)cc2C4(CCCCF)CCCCF)cc1 [Formula (8-2)] | 68 | 69 | 69
CCCCOc1ccc(C2(c3ccc(OCCCC)cc3)C=Cc3c4c(c5ccc(OC)cc5c3O2)-c2ccc(C)cc2C4(C)C)cc1 [Formula (B), reference compound] | 68 | 68 | 70
CCCOc1ccc(C2(c3ccc(OC)cc3)C=Cc3c4c(c5cc(C)c(OC)cc5c3O2)-c2ccc(N3CCSc5ccccc53)cc2C4(CCC)CCC)cc1 (stereo not drawn) [Formula (9-2)] | 70 | 73 | 74
COc1ccc(C2(c3ccc(OC)cc3)C=Cc3c4c(c5ccc(OC)cc5c3O2)-c2ccc(N(c3ccccc3)c3ccccc3)cc2C4(C)C)cc1 [Formula (15-2)] | 72 | 73 | 75
CCCOc1ccc(C2(c3ccc(OC)cc3)C=Cc3c4c(c5cc6c(cc5c3O2)OC(C)(C)S6)-c2ccc(N3CCCc5ccccc53)cc2C4(CCCOC)CCCOC)cc1 (stereo not drawn) [Formula (7-4)] | 67 | 69 | 70
COc1ccc(C2(c3ccc(OC)cc3)C=Cc3c4c(c5ccc(OC)cc5c3O2)-c2ccc(N(C)c3ccccc3)cc2C4(C)C)cc1 [Formula (1-7)] | 74 | 76 | 77
COc1ccc(C2(c3ccc(N4CCOCC4)cc3)C=Cc3c4c(c5ccc(OC)cc5c3O2)-c2ccc(N(C)c3ccccc3)cc2C42CCCCCCC2)cc1 (stereo not drawn) [Formula (4-3)] | 69 | 71 | 72
